Results as given in article PMC3871820.
These are yes or no findings as the source states them, for the method shown.

Amino acid sequences for entries named in this document (tags omitted).
UniProt Q9LQF0: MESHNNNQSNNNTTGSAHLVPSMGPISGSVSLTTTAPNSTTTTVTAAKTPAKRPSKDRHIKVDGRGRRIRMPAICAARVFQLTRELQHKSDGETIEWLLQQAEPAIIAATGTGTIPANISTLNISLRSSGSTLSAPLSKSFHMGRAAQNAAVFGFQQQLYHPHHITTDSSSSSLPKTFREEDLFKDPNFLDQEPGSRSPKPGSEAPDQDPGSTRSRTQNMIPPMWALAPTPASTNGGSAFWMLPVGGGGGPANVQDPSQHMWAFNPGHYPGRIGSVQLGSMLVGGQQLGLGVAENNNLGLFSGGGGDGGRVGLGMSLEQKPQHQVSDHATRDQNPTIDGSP
UniProt Q93Z00: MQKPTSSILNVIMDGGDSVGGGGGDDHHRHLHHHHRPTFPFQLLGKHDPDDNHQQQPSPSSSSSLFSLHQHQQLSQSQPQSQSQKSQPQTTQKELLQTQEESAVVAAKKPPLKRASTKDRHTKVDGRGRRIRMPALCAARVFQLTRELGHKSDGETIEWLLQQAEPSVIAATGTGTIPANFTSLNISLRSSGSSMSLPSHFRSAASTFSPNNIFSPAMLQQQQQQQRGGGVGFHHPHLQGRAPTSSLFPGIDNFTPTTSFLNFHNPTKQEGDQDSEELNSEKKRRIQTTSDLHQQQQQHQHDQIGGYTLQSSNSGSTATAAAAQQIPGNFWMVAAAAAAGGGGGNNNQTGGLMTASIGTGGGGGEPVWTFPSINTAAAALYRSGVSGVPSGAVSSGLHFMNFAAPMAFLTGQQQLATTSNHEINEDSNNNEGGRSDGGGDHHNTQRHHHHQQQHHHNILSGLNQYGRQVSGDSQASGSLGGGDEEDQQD
UniProt Q9C7G4: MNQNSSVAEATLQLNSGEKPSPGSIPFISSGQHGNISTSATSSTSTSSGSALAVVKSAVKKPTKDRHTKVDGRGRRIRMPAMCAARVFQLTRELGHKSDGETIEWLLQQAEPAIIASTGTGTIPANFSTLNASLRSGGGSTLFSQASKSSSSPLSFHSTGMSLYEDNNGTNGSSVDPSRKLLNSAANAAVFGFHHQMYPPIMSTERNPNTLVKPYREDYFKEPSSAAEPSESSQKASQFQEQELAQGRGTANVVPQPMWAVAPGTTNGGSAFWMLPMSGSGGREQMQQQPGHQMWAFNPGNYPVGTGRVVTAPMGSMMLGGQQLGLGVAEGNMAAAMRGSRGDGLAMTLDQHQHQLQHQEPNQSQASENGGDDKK
UniProt Q9SJK7: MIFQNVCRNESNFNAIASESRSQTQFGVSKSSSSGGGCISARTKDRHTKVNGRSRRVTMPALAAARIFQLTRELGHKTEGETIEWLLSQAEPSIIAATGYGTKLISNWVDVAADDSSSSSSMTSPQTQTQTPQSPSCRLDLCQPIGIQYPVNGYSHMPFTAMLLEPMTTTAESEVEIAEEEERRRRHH
UniProt O64647: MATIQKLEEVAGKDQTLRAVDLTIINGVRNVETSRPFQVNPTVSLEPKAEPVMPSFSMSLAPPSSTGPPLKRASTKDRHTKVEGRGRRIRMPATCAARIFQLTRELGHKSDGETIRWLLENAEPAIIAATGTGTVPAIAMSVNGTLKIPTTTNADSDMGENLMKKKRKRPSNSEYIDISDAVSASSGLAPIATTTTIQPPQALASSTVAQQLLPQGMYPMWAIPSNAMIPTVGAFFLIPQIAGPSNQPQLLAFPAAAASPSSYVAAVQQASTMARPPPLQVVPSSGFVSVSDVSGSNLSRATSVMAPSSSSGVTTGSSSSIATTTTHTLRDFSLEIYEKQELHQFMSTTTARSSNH

Columns and labels:
Assay in all cases: two-hybrid; matrix-based GAL4 yeast two-hybrid by mating (baits in PJ69-4alpha, preys in PJ69-4a); selection on SD-Leu-Trp-Ade or SD-Leu-Trp-His with 5 and 10 mM 3-amino-1,2,4-triazole; scored after 5 days at 30 °C; BD baits of TCP1, 2, 4, 10, 12, 18, 20 and 24 excluded for auto-activation; positive only if reproducible with at least two selection markers
[1] = biological target: TCP23 (Arabidopsis thaliana) (UniProt Q9LQF0)
[2] = biological target: T1, TCP19 (Arabidopsis thaliana) (UniProt Q9LT89)
T1 sequence: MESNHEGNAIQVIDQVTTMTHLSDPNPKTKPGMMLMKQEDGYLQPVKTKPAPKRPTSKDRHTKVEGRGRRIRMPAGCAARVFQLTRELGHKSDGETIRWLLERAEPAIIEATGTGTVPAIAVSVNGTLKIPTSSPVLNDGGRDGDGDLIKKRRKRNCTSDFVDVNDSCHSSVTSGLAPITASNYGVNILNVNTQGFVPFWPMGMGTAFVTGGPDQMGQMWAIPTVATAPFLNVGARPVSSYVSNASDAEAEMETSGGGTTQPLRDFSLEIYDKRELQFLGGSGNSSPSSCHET

[3] = biological target: TCP14 (Arabidopsis thaliana) (UniProt Q93Z00)
[4] = biological target: T2, TCP6 (Arabidopsis thaliana) (UniProt Q9FLM6)
T2 sequence: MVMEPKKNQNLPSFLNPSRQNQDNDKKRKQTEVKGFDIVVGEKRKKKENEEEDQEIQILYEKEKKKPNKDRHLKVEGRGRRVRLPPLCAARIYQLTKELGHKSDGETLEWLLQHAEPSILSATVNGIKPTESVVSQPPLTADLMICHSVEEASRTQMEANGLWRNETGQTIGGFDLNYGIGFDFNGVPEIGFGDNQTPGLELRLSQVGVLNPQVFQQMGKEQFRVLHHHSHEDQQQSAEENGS

[5] = biological target: T3, TCP17 (Arabidopsis thaliana) (UniProt Q9LEZ9)
T3 sequence: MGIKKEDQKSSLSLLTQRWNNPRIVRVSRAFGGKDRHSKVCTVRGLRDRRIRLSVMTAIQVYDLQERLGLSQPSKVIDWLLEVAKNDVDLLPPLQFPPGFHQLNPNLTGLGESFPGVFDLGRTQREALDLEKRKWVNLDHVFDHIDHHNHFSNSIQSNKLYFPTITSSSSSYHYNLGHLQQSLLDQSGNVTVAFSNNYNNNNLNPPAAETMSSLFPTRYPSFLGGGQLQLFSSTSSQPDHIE

[6] = biological target: TCP22 (Arabidopsis thaliana) (UniProt Q9C7G4)
[7] = biological target: TCP11 (Arabidopsis thaliana) (UniProt Q9SJK7)

binding [1]: no binding
binding [2]: no binding
binding [3]: no binding
binding [4]: no binding
binding [5]: no binding
binding [6]: no binding
binding [7]: no binding
Substance: TCP9 (from UniProt O64647 1-356)
